# Measured values from patent US5334703A (Chromonogenix AB, priority 1989, dated 1994).
# Strings that start with PEPTIDE1 are HELM notation: dots part the residues, brackets hold end groups and non-standard residues.
# Test: general procedure: solution-phase peptide synthesis; DCCI/HOBT; ONp active esters
# Settings: HCl
Substance,step yield (late stage modification step),final HPLC purity (late stage modification step),step yield (coupling step)
α-Ac-Ile-Thr-Gly-Lys-pNA.HCl,36%,97%,–
Ac--Ile--Glu-Glycolyl-Arg--pNA.HCl,31%,98%,–
α-Boc-Ile-γ-O-Bzl-Glu-Glyc-Arg-pNA.HCl,–,–,69%
α-Boc-Ile-γ-O-Bzl-Glu-Gly-ε-Z-Lys-pNA,–,–,61%
α-Boc-Ile-O-Bzl-Ser-Gly-ε-Z-Lys-pNA,–,–,72%
α-Ac-Ile-O-Bzl-Thr-Gly-ε-Z-Lys-pNA,86%,–,–
PEPTIDE1{[ac].I.S.G.K.[pNA]}$$$$V2.0,35%,97%,–
PEPTIDE1{[ac].I.E.G.K.[pNA]}$$$$V2.0,42%,98%,–
α-Ac-Ile-O-Bzl-Ser-Gly-ε-Z-Lys-pNA,85%,–,–
α-Ac-Ile-γ-O-Bzl-Glu-Glyc-Arg-pNA.HCl,94%,–,–
α-Boc-Ile-O-Bzl-Thr-Gly-ε-Z-Lys-pNA,–,–,50%
α-Ac-Ile-γ-O-Bzl-Glu-Gly-Z-Lys-pNA,86%,–,–
